Article PMC12311259, “Antifibrotic effects of specific targeting of the 5‐hydroxytryptamine 2B receptor (5‐HT2BR) in murine models and ex vivo models of scleroderma skin” (Arthritis & Rheumatology (Hoboken, N.j.), 2025)

Tests used:
[1] = system: cGvHD-induced skin fibrosis; assay: Sclerodermatous cGvHD mouse model (B10.D2 to BALB/c), skin fibrosis incl. RNASeq and immunofluorescence of skin; type: in vivo
Protocol: AM1476 was dissolved in sterile distilled water for the ex vivo and in vivo experiments. A concentration of 30 μM was applied for the ex vivo experiment. For the in vivo experiments, 1, 3, or 10 mg/kg was administered orally once or twice daily.
The B10.D2→BALB/c (H‐2d) minor histocompatibility antigen–mismatched model was performed as described.[9], [10] Briefly, female BALB/c (H‐2d) mice were purchased from Janvier. Male B10.D2 (H‐2d) mice were initially purchased from Jackson Laboratory. All mice were maintained in specific pathogen‐free conditions with sterile pellet food and water and a normal day–night cycle. For isolation of unfractionated bone marrow cells, tibial and femoral bones were prepared under sterile conditions. Phosphate buffered saline (PBS) was used to flush bone marrow cells from bone marrow cavities. Subsequently, bone marrow cells were filtered through 70‐μm nylon meshes (BD Biosciences), followed by erythrocyte hemolysis. The remaining bone marrow cells were kept on ice until transplantation. Transplantation of bone marrow cells and splenocytes was performed as follows: Recipient mice (BALB/c [H‐2d]) eight weeks of age received total body irradiation with 750 cGy. Six hours after irradiation, all BALB/c (H‐2d) recipients received bone marrow from either BALB/c (H‐2d) in a syngeneic transplantation manner or B10.D2 (H‐2d) in an allogeneic transplantation manner. For transplantation, 5 × 10[6] splenocytes and 2 × 10[6] bone marrow cells from donor mice were resuspended in 0.2 mL of PBS and injected via tail veins.[9], [10] To reflect the clinical situation with treatment initiation upon clinical signs of chronic graft‐versus‐host disease (cGvHD), treatment was started 21 days after bone marrow transplantation (BMT) and thus after the first clinically detectable manifestations of cGvHD in allogeneically transplanted mice. The outcome of treatment was analyzed seven weeks after transplantation. Eight mice per group were analyzed.
Mice were monitored clinically on a daily basis for behavior, activity, texture of the fur, weight, and consistency of the stool.[13] After the mice were killed, a gross macroscopic evaluation of the lungs and the skin was performed.
Recipient mice were clinically monitored on a daily basis from the day of transplantation to the indicated days after transplantation to determine the incidence and severity of cutaneous cGvHD as well as mobility, diarrhea, and weight loss.[10], [14] The following scoring system for cutaneous cGvHD was used: healthy appearance = 0; skin lesions with alopecia <1 cm[2] in area = 1; skin lesions with alopecia 1 to 2 cm[2] in area = 2; and skin lesions with alopecia >2 cm[2] in area = 3.
Skin samples were fixed in 4% formalin for six hours and embedded in paraffin. Five‐micrometer sections were cut and stained with hematoxylin and eosin (H&E). The dermal thickness was quantified on H&E‐stained sections using images captured with a light microscope (Nikon eclipse 80i) at 100‐fold magnification by manually measuring the distance between the epidermal‐dermal junction and the dermal‐subcutaneous fat junction at four sites per mouse.[15], [16] For lung samples, the whole left lung was fixed in 4% formalin for six hours and embedded in paraffin. Five‐micrometer sections were cut and stained with trichrome and sirius red. Histologic readouts were evaluation of the fibrotic area as the percentage of the total lung area in sirius red–stained sections (two sections per mouse) and quantification of pulmonary changes using the Ashcroft score (four sections per mouse).[17], [18]
The amount of collagen protein in skin and lung samples was determined by hydroxyproline assay.[19], [20] After digestion in 6 M HCl for three hours at 120°C, the pH of the samples was adjusted to a pH range of 6–7 with 6 M NaOH. Afterward, 0.06 M chloramine T was added to each sample and incubated for 20 minutes at room temperature.

[2] = system: PCS slices of SSc skin; assay: Precision cut skin (PCS) slices of SSc skin, ex vivo, RNASeq and immunofluorescence; type: cell-based, human; details: 30 μM
[3] = RNASeq of skin, 10 mg/kg once daily vs vehicle, allogeneic
[4] = murine cGvHD skin, RNASeq, validated by immunofluorescence

## C[C@@H]1CN(C(=N)N)N=C1c1ccc(F)cc1O [AM1476]
[1]; [3]
  DEGs, down-regulated genes: 89
  DEGs, up-regulated genes: 171
[1]; RNASeq of skin, 10 mg/kg once daily vs vehicle, allogeneic, adjusted P ≤ 0.05, |log2FC| ≥ 1
  differentially expressed genes (DEGs), total: 260
[1]; murine cGvHD skin
  levels of P-STAT3 and PAI-1: reduced
[1]; [4]
  MAOB and SLC6A4 expression: up‐regulation
  proinflammatory chemokines (eg, CCL2, CCL5, CCL18): reduced
[2]
  GSEA, gene set graft_versus_host_disease: negatively regulated
  GSEA, peroxisome proliferator-activated receptor signaling pathway: induced
[2]; 48 hours, n = 9 patients
  DEGs, down-regulated: 131
  DEGs, up-regulated: 294
[2]; 48 hours, n = 9 patients, vs donor-matched vehicle, P ≤ 0.05, |log2FC| ≥ 1
  differentially expressed genes (DEGs), total: 425
[2]; SSc-PCS
  levels of P-STAT3 and PAI-1: reduced
  proinflammatory chemokines (eg, CCL2, CCL5, CCL18): reduced
[2]; SSc-PCS, RNASeq, validated by immunofluorescence
  MAOB and SLC6A4 expression: up‐regulation
